Data reported in the odorant receptor screen of Mainland et al. (2015).
Values joined by “and” are separate entries in the source; they are usually repeats but may differ in a detail not shown here. Identical values can stand only once. The list shows a part of the results. Each value is one well over the wells without odorant, computed here; the data are noisy.

Columns and labels:
Assay in all cases: odorant receptor activation (CRE luciferase / Renilla) (fold of no-odor wells); higher = more activation
Conditions in all cases: 100 µM
OR1D5 clone 1692 = tested on: OR1D5 clone 1692
OR1E1 clone 1257 = tested on: OR1E1 clone 1257
OR1E1 clone 1546 = tested on: OR1E1 clone 1546
OR1E2 C27R clone 1447 = tested on: OR1E2 C27R clone 1447
OR1E2 clone 1517 = tested on: OR1E2 clone 1517
OR1F1 F75S clone 1281 = tested on: OR1F1 F75S clone 1281
OR1F12 clone 1694 = tested on: OR1F12 clone 1694
OR1G1 clone 1488 = tested on: OR1G1 clone 1488
[1] = tested on: OR1I1 P139R/Y252S clone 1468
OR1J1 clone 1696 = tested on: OR1J1 clone 1696

| Compound | odorant receptor activation (OR1D5 clone 1692) | odorant receptor activation (OR1E1 clone 1257) | odorant receptor activation (OR1E1 clone 1546) | odorant receptor activation (OR1E2 C27R clone 1447) | odorant receptor activation (OR1E2 clone 1517) | odorant receptor activation (OR1F1 F75S clone 1281) | odorant receptor activation (OR1F12 clone 1694) | odorant receptor activation (OR1G1 clone 1488) | odorant receptor activation [1] | odorant receptor activation (OR1J1 clone 1696) |
| --- | --- | --- | --- | --- | --- | --- | --- | --- | --- | --- |
| CCCCOC(C)=O [butyl acetate] | 0.683 | 0.82 | 0.759 | 0.134 | 0.937 | 1.1 | 0.768 | 0.902 | 1.31 | 1.08 |
| CS [methanethiol] | 0.555 | 0.858 | 0.859 | 1.11 | 1.07 | 0.871 | 0.753 | 0.926 | 0.654 | 0.702 |
| CCOc1cc(C=O)ccc1O [ethyl vanillin] | 0.882 | 0.882 and 0.973 | 1.37 | 1.14 and 1.18 | 1.16 and 2.5 and 1.31 | 0.952 and 0.994 | 0.667 | 1.31 and 1.66 and 0.963 | 1.04 and 1.18 and 0.917 | 0.679 |
| CCC(C)=O [2-butanone] | 1.05 | 1.65 | 1.18 | 0.711 | 1.21 | 0.93 | 0.868 | 1.23 | 1.1 | 0.834 |
